The record followed here is the supplement of paper PMC10849652.

Sequences of proteins named here, by UniProt entry; tags and fusion partners are left off. A change or cut given only in a name is not applied to a line headed by its entry.
UniProt Q9H936: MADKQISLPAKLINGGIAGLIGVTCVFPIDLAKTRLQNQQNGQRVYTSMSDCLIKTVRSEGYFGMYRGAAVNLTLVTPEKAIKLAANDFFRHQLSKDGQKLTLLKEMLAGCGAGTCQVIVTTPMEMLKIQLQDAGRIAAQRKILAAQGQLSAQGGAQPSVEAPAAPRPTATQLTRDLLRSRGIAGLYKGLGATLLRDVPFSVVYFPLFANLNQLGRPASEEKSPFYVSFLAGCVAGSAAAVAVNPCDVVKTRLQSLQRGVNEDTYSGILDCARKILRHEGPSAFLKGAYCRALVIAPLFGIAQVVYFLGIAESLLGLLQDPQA
UniProt P11166: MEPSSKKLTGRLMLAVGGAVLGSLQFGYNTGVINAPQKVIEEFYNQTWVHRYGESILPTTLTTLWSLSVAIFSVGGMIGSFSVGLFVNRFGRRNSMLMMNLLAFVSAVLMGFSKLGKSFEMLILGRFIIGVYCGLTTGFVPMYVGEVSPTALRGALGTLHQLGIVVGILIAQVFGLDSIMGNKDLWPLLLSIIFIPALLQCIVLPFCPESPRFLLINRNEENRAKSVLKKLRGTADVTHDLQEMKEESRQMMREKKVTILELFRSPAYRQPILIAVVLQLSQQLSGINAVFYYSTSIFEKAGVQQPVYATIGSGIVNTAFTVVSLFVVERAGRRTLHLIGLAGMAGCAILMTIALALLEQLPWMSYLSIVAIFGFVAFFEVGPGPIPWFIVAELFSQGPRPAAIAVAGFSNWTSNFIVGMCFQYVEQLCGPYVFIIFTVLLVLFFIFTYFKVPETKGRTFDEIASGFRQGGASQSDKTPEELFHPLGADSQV
UniProt Q00325: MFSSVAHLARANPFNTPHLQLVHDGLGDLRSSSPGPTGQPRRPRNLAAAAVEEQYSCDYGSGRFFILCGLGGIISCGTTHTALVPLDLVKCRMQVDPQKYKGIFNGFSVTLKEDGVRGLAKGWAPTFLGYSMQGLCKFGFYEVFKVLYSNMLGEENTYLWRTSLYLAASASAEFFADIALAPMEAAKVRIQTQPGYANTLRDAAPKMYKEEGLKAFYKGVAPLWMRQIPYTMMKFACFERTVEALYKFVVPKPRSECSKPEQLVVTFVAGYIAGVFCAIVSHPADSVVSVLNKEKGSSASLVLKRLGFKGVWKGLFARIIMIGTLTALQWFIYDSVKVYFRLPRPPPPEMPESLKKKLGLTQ
UniProt Q8TAD4: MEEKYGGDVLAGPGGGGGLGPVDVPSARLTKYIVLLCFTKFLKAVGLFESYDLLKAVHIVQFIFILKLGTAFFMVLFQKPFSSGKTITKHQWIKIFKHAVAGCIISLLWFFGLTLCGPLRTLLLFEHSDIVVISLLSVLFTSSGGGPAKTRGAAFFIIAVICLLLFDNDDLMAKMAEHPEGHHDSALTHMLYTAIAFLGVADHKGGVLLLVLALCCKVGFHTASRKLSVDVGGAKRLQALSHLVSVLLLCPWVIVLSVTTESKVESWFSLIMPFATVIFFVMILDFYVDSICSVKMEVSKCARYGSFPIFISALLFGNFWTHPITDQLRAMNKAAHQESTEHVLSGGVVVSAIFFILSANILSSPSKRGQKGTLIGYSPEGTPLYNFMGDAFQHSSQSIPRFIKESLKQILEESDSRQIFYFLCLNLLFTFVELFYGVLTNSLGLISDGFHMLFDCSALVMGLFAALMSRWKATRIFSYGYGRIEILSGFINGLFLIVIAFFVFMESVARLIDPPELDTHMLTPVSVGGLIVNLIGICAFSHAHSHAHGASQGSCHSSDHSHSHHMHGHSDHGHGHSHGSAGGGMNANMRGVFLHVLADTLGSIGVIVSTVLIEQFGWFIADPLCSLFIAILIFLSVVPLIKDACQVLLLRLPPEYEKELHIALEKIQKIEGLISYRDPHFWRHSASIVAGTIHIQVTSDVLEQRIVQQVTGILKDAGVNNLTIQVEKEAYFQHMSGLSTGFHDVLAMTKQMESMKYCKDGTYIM
UniProt Q15796, whole entry, looked up: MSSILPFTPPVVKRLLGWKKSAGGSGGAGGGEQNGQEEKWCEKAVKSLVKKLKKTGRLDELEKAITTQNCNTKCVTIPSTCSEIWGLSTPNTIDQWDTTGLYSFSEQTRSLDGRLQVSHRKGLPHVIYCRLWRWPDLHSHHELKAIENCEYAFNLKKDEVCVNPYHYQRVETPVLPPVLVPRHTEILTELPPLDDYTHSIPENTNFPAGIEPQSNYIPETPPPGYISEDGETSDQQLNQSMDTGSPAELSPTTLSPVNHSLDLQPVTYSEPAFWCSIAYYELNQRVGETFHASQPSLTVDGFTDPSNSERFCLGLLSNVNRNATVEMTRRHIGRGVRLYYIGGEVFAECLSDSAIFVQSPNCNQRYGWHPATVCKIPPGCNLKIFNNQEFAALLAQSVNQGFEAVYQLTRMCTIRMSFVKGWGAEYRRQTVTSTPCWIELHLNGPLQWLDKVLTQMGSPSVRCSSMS
UniProt Q9UPY5: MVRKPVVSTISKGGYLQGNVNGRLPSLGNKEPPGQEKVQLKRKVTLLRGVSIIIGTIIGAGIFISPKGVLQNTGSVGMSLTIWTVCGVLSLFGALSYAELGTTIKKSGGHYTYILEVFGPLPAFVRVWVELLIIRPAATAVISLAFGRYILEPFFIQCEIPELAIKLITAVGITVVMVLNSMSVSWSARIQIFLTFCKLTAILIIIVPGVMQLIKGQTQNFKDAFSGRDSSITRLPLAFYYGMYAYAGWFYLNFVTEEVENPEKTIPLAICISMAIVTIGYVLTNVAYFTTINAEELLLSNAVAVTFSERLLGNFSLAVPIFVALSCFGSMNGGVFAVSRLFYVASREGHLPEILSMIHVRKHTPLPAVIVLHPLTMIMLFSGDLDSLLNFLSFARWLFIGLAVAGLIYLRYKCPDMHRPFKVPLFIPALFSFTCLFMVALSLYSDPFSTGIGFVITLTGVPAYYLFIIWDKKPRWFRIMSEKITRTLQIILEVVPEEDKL
UniProt P19634, whole entry, looked up: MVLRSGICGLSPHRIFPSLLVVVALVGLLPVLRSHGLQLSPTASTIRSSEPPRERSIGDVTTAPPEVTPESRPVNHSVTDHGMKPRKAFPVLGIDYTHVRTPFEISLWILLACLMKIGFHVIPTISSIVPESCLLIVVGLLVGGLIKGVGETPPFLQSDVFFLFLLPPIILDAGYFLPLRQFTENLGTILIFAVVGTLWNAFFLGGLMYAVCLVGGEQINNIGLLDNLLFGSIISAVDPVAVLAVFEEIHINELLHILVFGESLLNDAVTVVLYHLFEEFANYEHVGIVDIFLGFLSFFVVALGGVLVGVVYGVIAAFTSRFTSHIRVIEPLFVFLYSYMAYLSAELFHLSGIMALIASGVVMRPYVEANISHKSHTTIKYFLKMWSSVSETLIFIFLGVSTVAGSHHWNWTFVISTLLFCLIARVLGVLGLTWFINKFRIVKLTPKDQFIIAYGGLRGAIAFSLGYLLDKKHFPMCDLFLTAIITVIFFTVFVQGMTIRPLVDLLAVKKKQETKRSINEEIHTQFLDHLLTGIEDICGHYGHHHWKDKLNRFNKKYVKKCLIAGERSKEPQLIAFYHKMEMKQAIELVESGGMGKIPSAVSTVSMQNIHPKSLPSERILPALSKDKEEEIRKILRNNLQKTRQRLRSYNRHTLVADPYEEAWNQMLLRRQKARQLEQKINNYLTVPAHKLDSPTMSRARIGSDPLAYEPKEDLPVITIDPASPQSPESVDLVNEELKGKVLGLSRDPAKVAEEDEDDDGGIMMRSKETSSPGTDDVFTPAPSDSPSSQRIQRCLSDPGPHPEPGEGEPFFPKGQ
UniProt Q9NP59: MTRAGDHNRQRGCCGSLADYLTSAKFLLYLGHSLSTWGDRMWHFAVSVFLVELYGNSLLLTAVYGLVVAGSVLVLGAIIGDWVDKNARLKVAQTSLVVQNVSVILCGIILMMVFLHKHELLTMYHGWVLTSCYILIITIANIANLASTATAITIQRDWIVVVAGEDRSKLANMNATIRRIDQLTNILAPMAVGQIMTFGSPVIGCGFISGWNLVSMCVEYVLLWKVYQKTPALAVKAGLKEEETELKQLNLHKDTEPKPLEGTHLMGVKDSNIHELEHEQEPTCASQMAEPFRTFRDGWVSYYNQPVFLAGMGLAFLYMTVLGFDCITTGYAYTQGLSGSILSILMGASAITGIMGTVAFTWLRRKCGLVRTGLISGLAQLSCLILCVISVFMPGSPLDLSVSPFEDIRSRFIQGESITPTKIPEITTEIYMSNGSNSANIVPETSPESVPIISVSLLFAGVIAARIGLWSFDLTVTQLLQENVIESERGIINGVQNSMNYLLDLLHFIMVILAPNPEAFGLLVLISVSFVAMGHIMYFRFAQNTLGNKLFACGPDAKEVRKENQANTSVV
UniProt P52569: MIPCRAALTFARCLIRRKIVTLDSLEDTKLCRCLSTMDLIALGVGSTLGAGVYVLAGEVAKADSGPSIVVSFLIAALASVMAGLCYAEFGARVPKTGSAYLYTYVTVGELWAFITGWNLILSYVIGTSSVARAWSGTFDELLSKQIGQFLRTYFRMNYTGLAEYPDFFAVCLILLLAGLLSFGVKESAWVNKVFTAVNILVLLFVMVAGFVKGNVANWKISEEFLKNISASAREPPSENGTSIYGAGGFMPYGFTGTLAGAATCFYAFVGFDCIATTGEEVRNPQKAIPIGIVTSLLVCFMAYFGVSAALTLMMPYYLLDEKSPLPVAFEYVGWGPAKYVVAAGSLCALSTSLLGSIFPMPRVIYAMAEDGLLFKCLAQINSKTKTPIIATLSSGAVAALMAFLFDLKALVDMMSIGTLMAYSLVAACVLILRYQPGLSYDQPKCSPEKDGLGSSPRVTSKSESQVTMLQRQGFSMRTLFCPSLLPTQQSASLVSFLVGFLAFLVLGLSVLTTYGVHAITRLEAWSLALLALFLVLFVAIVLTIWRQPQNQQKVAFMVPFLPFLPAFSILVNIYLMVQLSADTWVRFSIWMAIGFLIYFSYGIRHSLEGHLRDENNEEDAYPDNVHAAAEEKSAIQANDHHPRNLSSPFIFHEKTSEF

Some of the results follow.

Assay in all cases: log2 fold change, soluble protein after heating vs DMSO (PISA); higher = thermal stabilisation; K562 lysate, 10 uM; active = over 0.2 and 3.5 SD of the protein, either way, in both replicates (recomputed)
Compound in assay [1]: NCC(=O)Nc1ccc(-n2nc(C(F)(F)F)cc2-c2ccc3c(ccc4ccccc43)c2)cc1
Put shortly: (§1)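 Dounce homogenisation of K562 pellets in PBS pH 7.4 with 1 mM MgCl2 produced a crude extract, used at 1 mg/mL protein. Exposure to 10 μM compound lasted 30 min, and aliquots were then heated for 3 min across 48°C-58°C, pooled and brought to 0.5% NP-40 at 4°C. The supernatant after 21,000xg for 90 min was quantified by TMTpro 16plex LC-MS/MS with channel sums equalised. Duplicate values are given as log-two fold change in thermal stability relative to solvent controls.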

Compound in another assay: O=C(CCCCCCC(=O)Nc1ccccc1)NO [vorinostat]
Put shortly:
as §1

Compound in a further assay: O=C(O)c1ccc2c(c1)nc(Nc1cccc(Cl)c1)c1ccncc12 [silmitasertib]
Put shortly: as §1

Compound in assay [2]: O=C1NC(=O)C(c2cnc3ccccn23)=C1c1cn2c3c(cc(F)cc13)CN(C(=O)N1CCCCC1)CC2
Summed up:
as §1

Compound in the next assay: c1cn2cc(-c3ccc4cn[nH]c4c3)nc(Nc3ccc(N4CCOCC4)cc3)c2n1 [entospletinib]
Summed up: as §1

With SLC25A22 (UniProt Q9H936), the log2 fold change was inactive: -0.019 in assay [1]; inactive: -0.032 with vorinostat; inactive: 0.002 with silmitasertib; inactive: -0.006 in assay [2]; inactive: 0.008 with entospletinib.

As for SLC2A1 (UniProt P11166), the log2 fold change in assay [1] was inactive: 0.025; with vorinostat it was inactive: 0.122; in the assay with silmitasertib it was inactive: 0.019; in assay [2] it was inactive: 0.035; in the assay with entospletinib, inactive: 0.029.

With SLC25A3 isoform 2 (UniProt Q00325), the log2 fold change was inactive: 0.017 in assay [1]; inactive: 0.062 with vorinostat; inactive: -0.02 with silmitasertib; inactive: 0.019 in assay [2]; inactive: 0.016 with entospletinib.

Regarding SLC30A5 (UniProt Q8TAD4), the log2 fold change in assay [1] was inactive: -0.026; with vorinostat it was inactive: 0.046; with silmitasertib, inactive: -0.008; in assay [2], inactive: -0.049; with entospletinib it was inactive: 0.018.

As to SMAD2 (UniProt Q15796), the log2 fold change is inactive: -0.025 in assay [1]; active: -0.752 with vorinostat; inactive: -0.051 with silmitasertib; inactive: 0.008 in assay [2]; inactive: -0.049 with entospletinib.

In the case of SLC7A11 (UniProt Q9UPY5), the log2 fold change was inactive: 0.061 in assay [1]; inactive: 0.012 in the assay with vorinostat; inactive: 0.001 in the assay with silmitasertib; inactive: 0.072 in assay [2]; inactive: -0.048 with entospletinib.

With SLC9A1 (UniProt P19634), the log2 fold change in assay [1] is inactive: 0.025; with vorinostat, inactive: 0.13; in the assay with silmitasertib, inactive: -0.022; in assay [2], inactive: 0.026; in the assay with entospletinib, inactive: -0.035.

For SLC40A1 (UniProt Q9NP59), the log2 fold change is inactive: 0.005 in assay [1]; inactive: 0.046 with vorinostat; inactive: 0 in the assay with silmitasertib; inactive: -0.016 in assay [2]; inactive: 0.022 with entospletinib.

With SLC7A2 isoform 3 (UniProt P52569), the log2 fold change in assay [1] is inactive: -0.066; in the assay with vorinostat, inactive: 0.019; in the assay with silmitasertib, inactive: -0.033; in assay [2] it was inactive: 0.039; with entospletinib, inactive: 0.158.
